# Data source: PubChem BioAssay AID1259254 (NCATS, 2017)
# Assay: 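Genome-wide screen for genes that prevent DNA re-replication in cancer cells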 (primary screen)
# Cells: human HCT116 colorectal cancer cells
# Reagent: single siRNA against human genes
# Duration: 3 days
# Detection: 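Imaged Hoechst DNA stain sorts each cell into a cycle phase by DNA amount; per plate, G2 fraction set to 0% for non-targeting and 100% for GMNN siRNA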
# Reading the numbers: G2 robust z-score: higher = more G2 cells, more excess DNA replication
# Call rule: 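An siRNA counts as active if its G2 robust z-score lies at least 5 MADs above the screen median; here such calls match roughly 38% of GMNN control or more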
# This is an unselected part of about 59,000 reagents tested. In the full data, about 1,550 (2.6%) got an active call. 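G2 share is only a proxy for re-replication; each gene was hit by three separate siRNAs, and active genes were retested.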 The numbers tell different reagents against one gene apart. Not all columns of the deposit are shown. Reagent sequences are not shown. Not stated in the record: the amount of reagent.
Gene,reagent,G2 robust z-score,activity call
CIMIP4 (GeneID 339669),1,1.52,inactive
CIMIP4 (GeneID 339669),2,0.193,inactive
CIMIP4 (GeneID 339669),3,-0.0131,inactive
PDCD4 (GeneID 27250),1,0.134,inactive
PDCD4 (GeneID 27250),2,-1.36,inactive
PDCD4 (GeneID 27250),3,1.64,inactive
TARBP2 (GeneID 6895),1,-0.576,inactive
TARBP2 (GeneID 6895),2,-0.789,inactive
TARBP2 (GeneID 6895),3,3.12,inactive
YWHAEP5 (GeneID 440917),1,0.127,inactive
YWHAEP5 (GeneID 440917),2,-1.04,inactive
YWHAEP5 (GeneID 440917),3,0.544,inactive
PRDM13 (GeneID 59336),1,0.00112,inactive
PRDM13 (GeneID 59336),2,-0.577,inactive
PRDM13 (GeneID 59336),3,0.972,inactive
TRIM14 (GeneID 9830),1,0.0688,inactive
TRIM14 (GeneID 9830),2,-0.841,inactive
TRIM14 (GeneID 9830),3,0.435,inactive
PTGER4 (GeneID 5734),1,0.92,inactive
PTGER4 (GeneID 5734),2,0.164,inactive
PTGER4 (GeneID 5734),3,1.34,inactive
TUT4 (GeneID 23318),1,-0.499,inactive
TUT4 (GeneID 23318),2,0.366,inactive
TUT4 (GeneID 23318),3,0.884,inactive
BTAF1 (GeneID 9044),1,0.283,inactive
BTAF1 (GeneID 9044),2,1.06,inactive
BTAF1 (GeneID 9044),3,-0.38,inactive
EMC10 (GeneID 284361),1,2.1,inactive
EMC10 (GeneID 284361),2,3.33,inactive
EMC10 (GeneID 284361),3,0.844,inactive
SPI1 (GeneID 6688),1,-0.771,inactive
SPI1 (GeneID 6688),2,0.829,inactive
SPI1 (GeneID 6688),3,1.41,inactive
RAB27B (GeneID 5874),1,-1.02,inactive
RAB27B (GeneID 5874),2,1.16,inactive
RAB27B (GeneID 5874),3,-0.0461,inactive
LINC03033 (GeneID 400221),1,0.00405,inactive
LINC03033 (GeneID 400221),2,2.06,inactive
LINC03033 (GeneID 400221),3,3.92,inactive
IL22RA2 (GeneID 116379),1,3.71,inactive
IL22RA2 (GeneID 116379),2,5.73,active
IL22RA2 (GeneID 116379),3,-0.772,inactive
FOXP2 (GeneID 93986),1,1.75,inactive
FOXP2 (GeneID 93986),2,-0.529,inactive
FOXP2 (GeneID 93986),3,2.72,inactive
RNF126 (GeneID 55658),1,-1.51,inactive
RNF126 (GeneID 55658),2,2.28,inactive
RNF126 (GeneID 55658),3,0.172,inactive
PRR35 (GeneID 146325),1,-0.86,inactive
PRR35 (GeneID 146325),2,0.325,inactive
PRR35 (GeneID 146325),3,-0.0552,inactive
HTR3D (GeneID 200909),1,0.689,inactive
HTR3D (GeneID 200909),2,1.2,inactive
HTR3D (GeneID 200909),3,0.214,inactive
SPATA31D5P (GeneID 347127),1,-0.251,inactive
SPATA31D5P (GeneID 347127),2,-0.529,inactive
SPATA31D5P (GeneID 347127),3,-0.66,inactive
DDIT4 (GeneID 54541),1,-1.13,inactive
DDIT4 (GeneID 54541),2,0.859,inactive
DDIT4 (GeneID 54541),3,7.21,active
DDI1 (GeneID 414301),1,3.37,inactive
DDI1 (GeneID 414301),2,0.0022,inactive
DDI1 (GeneID 414301),3,-0.458,inactive
OR1J2 (GeneID 26740),1,-0.441,inactive
OR1J2 (GeneID 26740),2,-0.839,inactive
OR1J2 (GeneID 26740),3,-0.815,inactive
CD248 (GeneID 57124),1,0.00192,inactive
CD248 (GeneID 57124),2,1.83,inactive
CD248 (GeneID 57124),3,4.64,inactive

A few values from the list:
Result for OR1J2 (GeneID 26740) #1 under “G2 robust z-score”: -0.441
HTR3D (GeneID 200909) #1, G2 robust z-score: 0.689
Value of TRIM14 (GeneID 9830) #2 under “activity call”: inactive
Value of PTGER4 (GeneID 5734) #3 in “activity call”: inactive
CD248 (GeneID 57124) #1, G2 robust z-score: 0.00192
Value of SPI1 (GeneID 6688) #1 in “G2 robust z-score”: -0.771
